No constants are given. Whether binding was seen depends on the method and setting. In cells and extracts the contact can be indirect. Some entries that bind do so weakly or less than the wild type.
Molecular target: γ-aminobutyric acid type A receptor α1 (rat (endogenous in medullary dorsal horn tissue)) (UniProt P62813)
Experiment: co-IP; primary antibody (rabbit anti-GABARα1, or normal IgG as control) on Protein A + G Agarose, incubated 24 h at 4 °C with ≥500 µg lysate protein of medullary dorsal horn tissue of epilepsy-migraine comorbid rats; washed with cold GLB+ buffer; precipitates immunoblotted for GABAARα1, TLR4 and GAPDH

Sequences of proteins named here, by UniProt entry; tags and fusion partners are left off. Residues count along the entry.
UniProt P62813, residues 28-455: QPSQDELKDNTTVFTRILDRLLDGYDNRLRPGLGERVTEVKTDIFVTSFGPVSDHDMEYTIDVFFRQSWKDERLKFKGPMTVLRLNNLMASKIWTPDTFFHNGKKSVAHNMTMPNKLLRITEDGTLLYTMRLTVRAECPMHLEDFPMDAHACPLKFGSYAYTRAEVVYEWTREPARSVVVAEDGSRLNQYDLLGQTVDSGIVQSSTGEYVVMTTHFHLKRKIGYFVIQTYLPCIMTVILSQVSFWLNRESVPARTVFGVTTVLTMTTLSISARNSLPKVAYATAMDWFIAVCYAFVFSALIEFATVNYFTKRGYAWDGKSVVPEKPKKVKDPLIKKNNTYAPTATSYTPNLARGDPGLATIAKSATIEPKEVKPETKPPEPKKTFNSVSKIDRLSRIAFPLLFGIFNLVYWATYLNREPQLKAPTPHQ

B1: Toll-like receptor 4 (receptor, UniProt Q9QX05 26-835)
chain: NPCIEVLPNITYQCMDQNLSKIPHDIPYSTKNLDLSFNPLKILRSYSFTNFSQLQWLDLSRCEIETIEDKAWHGLNQLSTLVLTGNPIKSFSPGSFSGLTNLENLVAVETKMTSLEGFHIGQLISLKKLNVAHNLIHSFKLPEYFSNLTNLEHVDLSYNYIQTISVKDLQFLRENPQVNLSLDLSLNPIDSIQAQAFQGIRLHELTLRSNFNSSNVLKMCLQNMTGLHVHRLILGEFKNERNLESFDRSVMEGLCNVSIDEFRLTYINHFSDDIYNLNCLANISAMSFTGVHIKHIADVPRHFKWQSLSIIRCHLKPFPKLSLPFLKSWTLTTNREDISFGQLALPSLRYLDLSRNAMSFRGCCSYSDFGTNNLKYLDLSFNGVILMSANFMGLEELEYLDFQHSTLKKVTEFSVFLSLEKLLYLDISYTNTKIDFDGIFLGLISLNTLKMAGNSFKDNTLSNVFTNTTNLTFLDLSKCQLEQISRGVFDTLYRLQLLNMSHNNLLFLDPSHYKQLYSLRTLDCSFNRIETSKGILQHFPKSLAVFNLTNNSVACICEYQNFLQWVKDQKMFLVNVEQMKCASPIDMKASLVLDFTNSTCYIYKTIISVSVVSVLVVATVAFLIYHFYFHLILIAGCKKYSRGESIYDAFVIYSSQNEDWVRNELVKNLEEGVPRFQLCLHYRDFIPGVAIAANIIQEGFHKSRKVIVVVSRHFIQSRWCIFEYEIAQTWQFLSSRSGIIFIVLEKVEKSLLRQQVELYRLLSRNTYLEWEDNALGRHIFWRRLKKALLDGKALNPDETSEEEQEATTLT
**Q.** How did the binding turn out when B1 was run?
**A.** binds
